Results taken from patent publication US20150359798A1, “PIPERAZINYL DERIVATIVE REDUCES HIGH-FAT DIET-INDUCED ACCUMULATION OF FAT IN THE LIVERS, […]” (priority 2011, published 2015).

Tested on: mice fed with HFD
Test: HFD-fed mice, 8 weeks, gavage: serum/liver lipids, body weight, food intake
Type: in vivo
Description: In the 8 week experiment, C57BL/6J male mice (21-22 g), after fasting, were fed a HFD as a model of hyperlipidemia for 8 weeks. During the 2 month experiments, mice fasted for one night before the experiment was changed from a standard diet (STD) to a HFD and then the mice were randomly divided into 5 groups, including 2 control and 3 treatment groups. Six mice were used in each group. […] Liver from the protection group supplemented with KMUP-1 HCl (1 mg/kg/day) were used to determine the HMG CoA reductase expression.
Within 2 months, the 3 day food intake average for each animal was measured. The weight gain and plasma lipid levels of each group were determined and compared to the non-treatment control group. Mouse blood was collected during the daytime by cardiac puncture followed by centrifugation at 90 g (Benchtop Centrifuge, U.S.A.) to separate the serum, and frozen at −80° C., for biochemical analysis using a Hitachi Clinical Analyzer 7070 (Hitachi High-Technologies Co. Tokyo, Japan). Agents used in the assays were Obtained from Merck & Co. (Kenilworth, N.J., U.S.A.). Triglyceride (TG), total cholesterol, HDL cholesterol and LDL cholesterol in mouse serum were measured by methods used in the clinic. To measure the hepatic TG, isolated liver were cut into small chips.

Structure (SMILES): Cn1c(=O)c2c(ncn2CCN2CCN(c3ccccc3Cl)CC2)n(C)c1=O [KMUP-1, 7-[2-[4-(2-chlorophenyl)piperazinyl]ethyl]-1,3-dimethyl xanthine]
- food intake (2.5 mg/kg): 2.3 ± 0.1 g/day
- food intake (5 mg/kg): 2.2 ± 0.1 g/day
